We go through two molecules from paper doi:10.1101/647073.

Results are given in words; binding and its absence hold for the method and conditions named. In cells and extracts the contact can be indirect. Some entries that bind do so weakly or less than the wild type. Where a sequence is shown, tags or fusion partners need not be part of it.

The target in assay [1] is T1, GFP-Las1L (full length human Las1L, residues 1-734) (Homo sapiens) (UniProt Q9Y4W2).
T1 sequence: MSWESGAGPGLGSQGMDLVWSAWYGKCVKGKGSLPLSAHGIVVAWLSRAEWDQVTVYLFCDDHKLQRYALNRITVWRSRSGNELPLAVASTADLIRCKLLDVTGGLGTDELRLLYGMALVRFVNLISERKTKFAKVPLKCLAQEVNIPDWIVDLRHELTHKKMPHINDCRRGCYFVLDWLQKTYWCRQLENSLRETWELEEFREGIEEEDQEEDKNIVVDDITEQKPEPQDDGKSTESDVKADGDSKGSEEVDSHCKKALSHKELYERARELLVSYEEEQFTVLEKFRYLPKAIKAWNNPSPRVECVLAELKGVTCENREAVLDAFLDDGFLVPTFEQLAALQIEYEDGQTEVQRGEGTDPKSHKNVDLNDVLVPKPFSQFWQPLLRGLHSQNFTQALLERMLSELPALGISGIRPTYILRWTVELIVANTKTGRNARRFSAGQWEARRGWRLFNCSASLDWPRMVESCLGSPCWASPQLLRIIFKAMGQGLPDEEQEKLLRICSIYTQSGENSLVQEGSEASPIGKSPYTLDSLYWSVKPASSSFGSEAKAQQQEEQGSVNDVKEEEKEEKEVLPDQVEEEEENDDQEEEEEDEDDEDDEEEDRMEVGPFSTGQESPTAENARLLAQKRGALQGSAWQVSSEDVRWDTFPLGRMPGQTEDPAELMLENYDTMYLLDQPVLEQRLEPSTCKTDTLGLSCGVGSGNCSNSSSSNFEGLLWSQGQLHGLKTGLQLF
The assay is described as follows: co-IP.

Assay [2] addresses T2, GFP-Nol9 (full length human Nol9, residues 1-702) (Homo sapiens) (UniProt Q5SY16).
T2 sequence: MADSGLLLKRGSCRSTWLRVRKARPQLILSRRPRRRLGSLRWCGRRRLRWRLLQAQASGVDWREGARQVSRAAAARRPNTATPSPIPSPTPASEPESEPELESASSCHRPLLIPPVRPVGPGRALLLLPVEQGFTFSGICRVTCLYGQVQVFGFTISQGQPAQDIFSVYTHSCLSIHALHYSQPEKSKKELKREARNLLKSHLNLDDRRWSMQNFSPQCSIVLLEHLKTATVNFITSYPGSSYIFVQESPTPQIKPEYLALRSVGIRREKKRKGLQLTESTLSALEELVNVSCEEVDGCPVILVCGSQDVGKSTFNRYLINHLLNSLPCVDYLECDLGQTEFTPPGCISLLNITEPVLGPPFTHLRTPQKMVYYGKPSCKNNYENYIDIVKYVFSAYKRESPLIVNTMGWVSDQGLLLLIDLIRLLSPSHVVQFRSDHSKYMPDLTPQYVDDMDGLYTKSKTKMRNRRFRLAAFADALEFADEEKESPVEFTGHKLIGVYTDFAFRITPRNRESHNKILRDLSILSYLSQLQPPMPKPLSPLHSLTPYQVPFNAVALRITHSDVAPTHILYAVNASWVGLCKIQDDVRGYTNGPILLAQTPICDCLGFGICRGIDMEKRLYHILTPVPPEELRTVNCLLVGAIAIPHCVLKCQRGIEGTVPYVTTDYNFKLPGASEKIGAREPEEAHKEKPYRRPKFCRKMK
The assay is described as follows: co-IP.

B1: Strep-Las1L (full length human Las1L, residues 1-734) (protein, UniProt Q9Y4W2 1-734)
chain: MSWESGAGPGLGSQGMDLVWSAWYGKCVKGKGSLPLSAHGIVVAWLSRAEWDQVTVYLFCDDHKLQRYALNRITVWRSRSGNELPLAVASTADLIRCKLLDVTGGLGTDELRLLYGMALVRFVNLISERKTKFAKVPLKCLAQEVNIPDWIVDLRHELTHKKMPHINDCRRGCYFVLDWLQKTYWCRQLENSLRETWELEEFREGIEEEDQEEDKNIVVDDITEQKPEPQDDGKSTESDVKADGDSKGSEEVDSHCKKALSHKELYERARELLVSYEEEQFTVLEKFRYLPKAIKAWNNPSPRVECVLAELKGVTCENREAVLDAFLDDGFLVPTFEQLAALQIEYEDGQTEVQRGEGTDPKSHKNVDLNDVLVPKPFSQFWQPLLRGLHSQNFTQALLERMLSELPALGISGIRPTYILRWTVELIVANTKTGRNARRFSAGQWEARRGWRLFNCSASLDWPRMVESCLGSPCWASPQLLRIIFKAMGQGLPDEEQEKLLRICSIYTQSGENSLVQEGSEASPIGKSPYTLDSLYWSVKPASSSFGSEAKAQQQEEQGSVNDVKEEEKEEKEVLPDQVEEEEENDDQEEEEEDEDDEDDEEEDRMEVGPFSTGQESPTAENARLLAQKRGALQGSAWQVSSEDVRWDTFPLGRMPGQTEDPAELMLENYDTMYLLDQPVLEQRLEPSTCKTDTLGLSCGVGSGNCSNSSSSNFEGLLWSQGQLHGLKTGLQLF
Turning to B1, the binding result in assay [1] is listed as “binds”.

B2: GST-Nol9 (full length human Nol9) (protein, UniProt Q5SY16 1-702)
chain: MADSGLLLKRGSCRSTWLRVRKARPQLILSRRPRRRLGSLRWCGRRRLRWRLLQAQASGVDWREGARQVSRAAAARRPNTATPSPIPSPTPASEPESEPELESASSCHRPLLIPPVRPVGPGRALLLLPVEQGFTFSGICRVTCLYGQVQVFGFTISQGQPAQDIFSVYTHSCLSIHALHYSQPEKSKKELKREARNLLKSHLNLDDRRWSMQNFSPQCSIVLLEHLKTATVNFITSYPGSSYIFVQESPTPQIKPEYLALRSVGIRREKKRKGLQLTESTLSALEELVNVSCEEVDGCPVILVCGSQDVGKSTFNRYLINHLLNSLPCVDYLECDLGQTEFTPPGCISLLNITEPVLGPPFTHLRTPQKMVYYGKPSCKNNYENYIDIVKYVFSAYKRESPLIVNTMGWVSDQGLLLLIDLIRLLSPSHVVQFRSDHSKYMPDLTPQYVDDMDGLYTKSKTKMRNRRFRLAAFADALEFADEEKESPVEFTGHKLIGVYTDFAFRITPRNRESHNKILRDLSILSYLSQLQPPMPKPLSPLHSLTPYQVPFNAVALRITHSDVAPTHILYAVNASWVGLCKIQDDVRGYTNGPILLAQTPICDCLGFGICRGIDMEKRLYHILTPVPPEELRTVNCLLVGAIAIPHCVLKCQRGIEGTVPYVTTDYNFKLPGASEKIGAREPEEAHKEKPYRRPKFCRKMK
For the molecule B2, the binding result in assay [2] is given as “binds”.
